The results in this text go back to paper PMC12647202.

No constants are given. Whether binding was seen depends on the method and setting. In cells and extracts the contact can be indirect. A yes stands for co-enrichment or nearness to the bait. Other partners may have been found. A no says only that the protein was not detected with the bait. Where a sequence is shown, tags or fusion partners need not be part of it.

For this assay, the target named is T1, homolog of methionine γ-lyase (MGL) encoded by synpcc7942_2562, triple-FLAG-tagged (Synechococcus elongatus sp. PCC 7942) (UniProt Q54763).
T1 sequence: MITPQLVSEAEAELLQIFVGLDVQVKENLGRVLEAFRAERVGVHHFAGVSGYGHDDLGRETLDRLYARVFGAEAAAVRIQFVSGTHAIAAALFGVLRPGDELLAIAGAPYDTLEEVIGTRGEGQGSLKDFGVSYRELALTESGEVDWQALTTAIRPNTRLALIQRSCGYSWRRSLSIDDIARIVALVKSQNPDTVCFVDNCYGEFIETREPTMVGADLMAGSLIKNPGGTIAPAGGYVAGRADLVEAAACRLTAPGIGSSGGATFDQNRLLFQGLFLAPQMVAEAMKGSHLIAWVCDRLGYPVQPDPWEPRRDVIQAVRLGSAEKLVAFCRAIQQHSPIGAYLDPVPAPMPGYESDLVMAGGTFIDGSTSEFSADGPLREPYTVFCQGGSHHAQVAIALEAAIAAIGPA
The experiment in a line: affinity purification with mass spectrometry; lysate of S. elongatus strain 2562::Tn5/2562::FLAG on anti-FLAG magnetic beads, 2 h at room temperature and overnight at 4 °C; eluted with 100 µM triple-FLAG peptide; non-tagged strain 2562::Tn5/2562 as negative control; three independent biological repetitions; hits at fold ≥ 2, p value ≤ 0.05.
Turning to “23 S rRNA (Uracil-5-)- methyltransferase (enzyme)”, the binding result is recorded as “binds”. Consider “EbsA (essential for biofilm suppression)”, for which the binding entry is given as “no binding”.

Turning to translation initiation factor IF-1, the binding entry is given as “binds”.
